Source: paper PMC7247563, “Glycosylation Tunes Neuroserpin Physiological and Pathological Properties” (International Journal of Molecular Sciences, 2020)
No constants are given. Whether binding was seen depends on the method and setting. Some entries that bind do so weakly or less than the wild type.

Assays:
[1] = target: human glycosylated neuroserpin expressed in LEXSY (Leishmania tarentolae) (human) (UniProt Q99574); test: SEC; 63.8 uM NS or gNS in 10 mM Tris-HCl pH 8.0, 50 mM KCl, incubated at 45 °C; aliquots at different times run on a Superdex 200 Increase 10/300 GL column; heat-induced polymerisation; both purified
[2] = target: human glycosylated neuroserpin expressed in LEXSY (Leishmania tarentolae) (human) (UniProt Q99574); test: native gel or EMSA; aliquots of NS or gNS (63.8 uM) after different times at 45 °C; 7.5 % non-denaturing polyacrylamide gel, 90 V, 2 h, 4 °C, Coomassie stain; heat-induced polymerisation; both purified

binding [1]: binds weakly | binding [2]: binds weakly
B1: human glycosylated neuroserpin expressed in LEXSY (Leishmania tarentolae) (protein, UniProt Q99574 17-410)
chain: TGATFPEEAIADLSVNMYNRLRATGEDENILFSPLSIALAMGMMELGAQGSTQKEIRHSMGYDSLKNGEEFSFLKEFSNMVTAKESQYVMKIANSLFVQNGFHVNEEFLQMMKKYFNAAVNHVDFSQNVAVANYINKWVENNTNNLVKDLVSPRDFDAATYLALINAVYFKGNWKSQFRPENTRTFSFTKDDESEVQIPMMYQQGEFYYGEFSDGSNEAGGIYQVLEIPYEGDEISMMLVLSRQEVPLATLEPLVKAQLVEEWANSVKKQKVEVYLPRFTVEQEIDLKDVLKALGITEIFIKDANLTGLSDNKEIFLSKAIHKSFLEVNEEGSEAAAVSGMIAISRMAVLYPQVIVDHPFFFLIRNRRTGTILFMGRVMHPETMNTSGHDFEEL
modifications: N-linked glycans at N157 and N321
